Results are given in words; binding and its absence hold for the method and conditions named. Binding seen in cells or lysates may run through a third protein. Here binding means that the protein was enriched with, or labelled near, the bait; the list need not be complete. Tags and fused reporters may be left off the sequences shown.
Target: T1, Flag-DUSP14 (wild-type), expressed in HEK293T cells (human) (UniProt O95147)
T1 sequence: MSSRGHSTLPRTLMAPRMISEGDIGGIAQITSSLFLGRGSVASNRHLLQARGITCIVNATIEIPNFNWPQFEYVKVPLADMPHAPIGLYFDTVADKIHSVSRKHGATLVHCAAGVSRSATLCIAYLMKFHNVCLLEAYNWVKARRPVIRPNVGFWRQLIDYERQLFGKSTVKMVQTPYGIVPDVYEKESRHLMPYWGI
Assay: affinity purification with mass spectrometry; HEK293T cells transfected with Flag-DUSP14; anti-Flag immunoprecipitation, SDS-PAGE, silver-stained bands excised, trypsin, MS

Amino acid sequences for entries named in this document (tags omitted).
UniProt O14744: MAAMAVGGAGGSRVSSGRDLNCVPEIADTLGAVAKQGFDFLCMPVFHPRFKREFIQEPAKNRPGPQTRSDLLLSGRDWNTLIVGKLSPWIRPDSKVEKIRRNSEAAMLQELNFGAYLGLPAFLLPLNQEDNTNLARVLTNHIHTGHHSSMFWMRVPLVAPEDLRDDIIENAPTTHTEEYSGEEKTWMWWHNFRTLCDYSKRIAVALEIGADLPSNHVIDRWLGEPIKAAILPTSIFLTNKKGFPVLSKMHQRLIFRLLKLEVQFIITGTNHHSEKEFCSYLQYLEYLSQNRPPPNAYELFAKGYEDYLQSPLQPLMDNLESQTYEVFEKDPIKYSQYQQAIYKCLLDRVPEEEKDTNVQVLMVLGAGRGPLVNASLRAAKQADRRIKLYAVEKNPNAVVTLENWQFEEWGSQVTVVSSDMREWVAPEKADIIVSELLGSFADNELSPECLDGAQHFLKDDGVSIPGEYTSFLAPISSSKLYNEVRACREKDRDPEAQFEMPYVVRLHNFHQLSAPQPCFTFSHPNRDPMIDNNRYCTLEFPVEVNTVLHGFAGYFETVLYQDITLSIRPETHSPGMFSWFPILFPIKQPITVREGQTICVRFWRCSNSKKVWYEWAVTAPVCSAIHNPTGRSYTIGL

Substance: endogenous PRMT5 of HEK293T cells (from UniProt O14744 1-637) (enzyme)
- binding: binds
